Measurements taken from patent publication US8168628B2, “Conjugated psychotropic drugs and uses thereof” (Ramot at Tel-Aviv University Ltd., priority 2001, dated 2012).

Experiments:
Format in all cases: cell-based
Jurkat T lymphoma cells = test: Proliferation / viability test, Jurkat T lymphoma cells; details: Homo sapiens, linear regression of survival percentage
Description: (§1) Cell lines: Human prostate carcinoma (PC-3), human colon carcinoma (HT-29), murine melanoma (B-16) and its drug resistant subclone (B-16 MDR), mouse fibroblasts (3T3), myeloid leukemia (HL 60) and its drug resistant subclone (HL 60 MX2), endometrium cell line (MES SA) and its drug resistant subclone (MES DX5), jurkat T lymphoma and monocyte leukemia (U-937), were used in this study.
(§2) Proliferation of cancer and normal cells: Proliferation was measured by neutral red assay or by a fluorometric assay quantitating DNA content. In the neutral red assay, the neutral red is absorbed by lysosomes, thus causing coloring of living cells. Quantitative analysis is performed by colorimetric assay (ELISA reader at 550 nm). In the fluorometric assay, alamar blue is used as a redox indicator. Alamar blue fluorescence was measured at an excitation wavelength of 544 nm and an emission wavelength of […] (FLUOstar BMG Lab Technologies, Offenburg, Germany).
(§3) The cells were sub-cultured and the tested compounds were added thereto in increasing concentrations. The IC50 values were determined by linear regression of the survival percentage of the cells.

HL 60 MX2 (MDR) = test: Proliferation test, HL 60 MX2 (MDR) cells; details: Homo sapiens, HL60/MX2; linear regression of survival percentage
Description: as §1, §2, §3

U-937 = test: Proliferation test, U-937 cells; details: Homo sapiens, linear regression of survival percentage
Description: as §1, §2, §3

MES SA DX5 (MDR) = test: Proliferation test, MES SA DX5 (MDR) cells; details: Homo sapiens, linear regression of survival percentage
Description: as §1, §2, §3

MES SA = test: Proliferation test, MES SA cells; details: Homo sapiens, linear regression of survival percentage
Description: as §1, §2, §3

HL 60 = test: Proliferation test, HL 60 cells; details: Homo sapiens, linear regression of survival percentage
Description: as §1, §2, §3

For `OCCN1CCN(CCCN2c3ccccc3Sc3ccc(C(F)(F)F)cc32)CC1` [Fluphenazine, fluphenazine, reference compound], the IC50 (Jurkat T lymphoma cells) was 14.3 µM, the IC50 (HL 60 MX2 (MDR)) was 21.8 µM and the IC50 (U-937) was 21.5 µM. For the same molecule, the IC50 (MES SA DX5 (MDR)) was 13.7 µM, the IC50 (MES SA) was 14.8 µM and the IC50 (HL 60) was 20.9 µM.
